Measured data: PubChem BioAssay AID504808 (Drosophila RNAi Screening Center, 2011)

- Purpose: 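Fly genes required to hold E2F transcription in check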 (primary screen)
- Cells: Drosophila S2 cells
- Reagent: long dsRNA against Drosophila genes
- Read-out: 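Dual luciferase plate measurements; E2F-specific signal taken as firefly over Renilla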
- Reading the numbers: E2F firefly: higher = more E2F reporter activity; Renilla normaliser: higher = more normaliser reporter signal
- Rule for the call: 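a knock-down counted as active when the firefly/Renilla E2F signal rose above 50%, a threshold chosen arbitrarily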
The deposit covers about 21,000 reagents; this is an unselected part of those with a known target gene and a result. In the full data, 18 (0.084%) got an active call. 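Raw counts without plate normalisation, one of two replicates; the ratio scores behind the calls were not deposited.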 A plus sign joins genes that one reagent is predicted to hit. Reagent sequences are not shown. Not stated in the record: the amount of reagent, the time to read-out.

no.	target gene	amplicon	E2F firefly, rep 1	Renilla normaliser, rep 1	activity call
1	CG16985 (GeneID 38323)	DRSC08501	1.11e5	4713	inactive
2	CG32241 (GeneID 317934)	DRSC08100	1.39e5	3735	inactive
3	CG5687 (GeneID 38255)	DRSC08568	77049	3719	inactive
4	CG3687 (GeneID 36803)	DRSC06850	1.43e5	4771	inactive
5	Mekk1 (GeneID 42253)	DRSC16302	81671	3446	inactive
6	Mekk1 (GeneID 42253)	DRSC16303	1.51e5	7211	inactive
7	CAH6 (GeneID 43701)	DRSC15505	1.17e5	5384	inactive
8	CG34430 (GeneID 5740489)	DRSC06499	1.45e5	4774	inactive
9	CG13364 (GeneID 50364)	DRSC17898	1.30e5	6300	inactive
10	CG13364 (GeneID 50364)	DRSC21263	1.47e5	6136	inactive
11	Syt14 (GeneID 40544)	DRSC12331	1.41e5	7394	inactive
12	CG5126 (GeneID 33306)	DRSC00680	92519	3433	inactive
13	Tif-IA (GeneID 35454)	DRSC03717	66889	3747	inactive
14	Tif-IA (GeneID 35454)	DRSC03726	89419	4198	inactive
15	CG32537 (GeneID 318079)	DRSC20073	1.74e5	5803	inactive
16	CG5196 (GeneID 41522)	DRSC15735	1.58e5	7413	inactive
17	Dsor1 (GeneID 31872)	DRSC18462	7362	840	inactive
18	Creld (GeneID 33166)	DRSC00308	1.48e5	4666	inactive
19	Eato (GeneID 34783)	DRSC01891	89004	3575	inactive
20	Eato (GeneID 34783)	DRSC03061	1.11e5	4512	inactive
21	CG31948 (GeneID 326178)	DRSC00740	1.73e5	6785	inactive
22	CG30274 (GeneID 246521)	DRSC04171	1.06e5	4517	inactive
23	Cht11 (GeneID 31630)	DRSC18270	51600	3377	inactive
24	CG6689 (GeneID 41345)	DRSC16095	81241	3707	inactive
25	CG17195 (GeneID 43113)	DRSC15188	1.19e5	6227	inactive
26	CG3918 (GeneID 31585)	DRSC18331	5019	872	inactive
27	CG16959 (GeneID 39648)	DRSC10230	67423	3324	inactive
28	Dredd (GeneID 31011)	DRSC18461	1750	936	inactive
29	gnu (GeneID 39615)	DRSC10497	81781	3696	inactive
30	CG15203 (GeneID 32038)	DRSC19650	1.29e5	6606	inactive
31	CG4763 (GeneID 37771)	DRSC04009	1.25e5	4587	inactive
32	CG4763 (GeneID 37771)	DRSC04487	89197	3561	inactive
33	Tsp42Eb + CG30160	DRSC04961	1.43e5	5426	inactive
34	Tsp42Eb + CG30160	DRSC06791	1.43e5	4956	inactive
35	CG15226 (retired record) (GeneID 37353)	DRSC03829	1.26e5	4242	inactive
36	CG15226 (retired record) (GeneID 37353)	DRSC04233	96276	4016	inactive
37	CG18278 + CG30059	DRSC05418	1.28e5	4661	inactive
38	l(3)L1231 (GeneID 41776)	DRSC16323	65594	3653	inactive

Next part, starting with the last 12 of the part before.
no.	target gene	amplicon	E2F firefly, rep 1	Renilla normaliser, rep 1	activity call
27	CG16959 (GeneID 39648)	DRSC10230	67423	3324	inactive
28	Dredd (GeneID 31011)	DRSC18461	1750	936	inactive
29	gnu (GeneID 39615)	DRSC10497	81781	3696	inactive
30	CG15203 (GeneID 32038)	DRSC19650	1.29e5	6606	inactive
31	CG4763 (GeneID 37771)	DRSC04009	1.25e5	4587	inactive
32	CG4763 (GeneID 37771)	DRSC04487	89197	3561	inactive
33	Tsp42Eb + CG30160	DRSC04961	1.43e5	5426	inactive
34	Tsp42Eb + CG30160	DRSC06791	1.43e5	4956	inactive
35	CG15226 (retired record) (GeneID 37353)	DRSC03829	1.26e5	4242	inactive
36	CG15226 (retired record) (GeneID 37353)	DRSC04233	96276	4016	inactive
37	CG18278 + CG30059	DRSC05418	1.28e5	4661	inactive
38	l(3)L1231 (GeneID 41776)	DRSC16323	65594	3653	inactive
39	CG15140 (GeneID 5740546)	DRSC02440	1.04e5	4447	inactive
40	CG34126 (GeneID 318872)	DRSC02726	1.56e5	5362	inactive
41	WASp (GeneID 43402)	DRSC15032	1.06e5	5838	inactive
42	ND-PDSW (GeneID 44228)	DRSC00715	77418	3762	inactive
43	Cpr97Ea (GeneID 43258)	DRSC15974	1.24e5	6186	inactive
44	Dhrs4 (GeneID 38598)	DRSC09773	73080	131	inactive
45	ACOX1 (GeneID 37028)	DRSC05941	71238	3857	inactive
46	Fatp (retired record) (GeneID 44227)	DRSC03054	79588	3416	inactive
47	Obp19c (GeneID 33039)	DRSC20528	1.36e5	6568	inactive
48	Mst85C (GeneID 41089)	DRSC16746	1.23e5	5760	inactive
49	CG12128 + CG1407	DRSC06446	2835	235	inactive
50	PICK1 (GeneID 34677)	DRSC02936	1.08e5	4127	inactive
51	CG12541 (GeneID 31650)	DRSC17483	83838	2565	inactive
52	CG12541 (GeneID 31650)	DRSC17839	1.25e5	5797	inactive
53	CG15408 (GeneID 33548)	DRSC00423	1.57e5	5538	inactive
54	CG10182 (GeneID 42780)	DRSC14202	98091	5654	inactive
55	RNaseX25 (GeneID 38885)	DRSC11259	66392	3306	inactive
56	bigmax (GeneID 43293)	DRSC15481	1868	972	inactive
57	Dh31-R (GeneID 36475)	DRSC06647	95577	4316	inactive
58	Dh31-R (GeneID 36475)	DRSC06669	98061	4580	inactive
59	klhl10 (GeneID 3354863)	DRSC05274	1.29e5	5512	inactive
60	klhl10 (GeneID 3354863)	DRSC19171	94186	3120	inactive
61	klhl10 (GeneID 3354863)	DRSC20750	1.41e5	6276	inactive
62	klhl10 (GeneID 3354863)	DRSC20925	1.30e5	4437	inactive
63	CG4496 (GeneID 34000)	DRSC02753	1.52e5	4732	inactive
64	CG9662 (GeneID 33554)	DRSC00723	1.66e5	5665	inactive
65	CG15200 (GeneID 32060)	DRSC19647	1.29e5	6973	inactive
66	Vha36-2 (GeneID 36328)	DRSC06294	1.08e5	4629	inactive
67	sosie (GeneID 42961)	DRSC14636	1.04e5	5733	inactive
68	CG1143 (GeneID 38329)	DRSC08188	87553	3830	inactive
69	Or47a (GeneID 36187)	DRSC07491	1.06e5	4701	inactive
70	CG5273 (GeneID 31021)	DRSC18612	60976	3482	inactive
71	fs(1)N (GeneID 45973)	DRSC18578	1.21e5	5909	inactive
72	CG14014 (GeneID 33784)	DRSC02345	1.44e5	5002	inactive
73	CG2145 (GeneID 32027)	DRSC19835	7818	832	inactive
74	Karl (GeneID 32131)	DRSC19883	8382	816	inactive
75	Spn77Bb + Spn77Bc	DRSC10689	1.26e5	7492	inactive
76	Spn77Bb + Spn77Bc	DRSC11793	1.39e5	7829	inactive
77	CG14237 (GeneID 43194)	DRSC14731	96274	6039	inactive
78	cuff (GeneID 36269)	DRSC06315	92268	3746	inactive
79	CG10332 (retired record) + IM18	DRSC04064	1.06e5	5144	inactive
80	CG17841 (GeneID 31965)	DRSC17737	7943	756	inactive
81	Inos (GeneID 35671)	DRSC07655	1.49e5	5089	inactive
82	Inx6 (GeneID 31645)	DRSC20579	1.24e5	3240	inactive
83	btsz (GeneID 3346167)	DRSC14982	98693	5298	inactive
84	btsz (GeneID 3346167)	DRSC16231	1.12e5	5970	inactive
85	Set2 (GeneID 32301)	DRSC19765	7915	800	inactive
86	CG15022 (GeneID 38549)	DRSC08476	72021	3179	inactive
87	Ilk (GeneID 53573)	DRSC11868	48412	3466	inactive
88	CG31784 (GeneID 318939)	DRSC01574	1.26e5	5222	inactive
89	CG14196 (GeneID 32915)	DRSC19551	1.24e5	7295	inactive
90	Dnaaf6 (GeneID 39598)	DRSC10473	1.61e5	8416	inactive
91	CG32450 (GeneID 318034)	DRSC11546	91045	3832	inactive
92	DIP-zeta (GeneID 34231)	DRSC02203	1.52e5	5270	inactive
93	DIP-zeta (GeneID 34231)	DRSC02204	1.47e5	5085	inactive
94	DIP-zeta (GeneID 34231)	DRSC02205	1.57e5	5803	inactive
95	TTLL1B (GeneID 326203)	DRSC08594	85386	3575	inactive
96	eIF2Bdelta (GeneID 37706)	DRSC04058	74718	3402	inactive
97	CG14354 (GeneID 43120)	DRSC14817	95581	6072	inactive
98	Irk1 (GeneID 42742)	DRSC16106	1.15e5	6466	inactive
99	Ir93a (GeneID 42471)	DRSC15212	69625	5386	inactive
100	Ir93a (GeneID 42471)	DRSC15213	1.53e5	7465	inactive
101	cad (GeneID 35341)	DRSC03502	78225	3951	inactive
102	CG17260 (GeneID 33519)	DRSC00497	88521	3821	inactive
103	CG34195 (GeneID 37018)	DRSC06909	1.50e5	5351	inactive
104	CG32085 (GeneID 39311)	DRSC10138	1.19e5	6294	inactive
105	CG32085 (GeneID 39311)	DRSC10139	1.26e5	6309	inactive
106	CG32085 (GeneID 39311)	DRSC10576	1.09e5	5857	inactive
107	CG1578 (GeneID 32135)	DRSC19729	8118	756	inactive
